Some results were stated once for a whole list of compounds, not compound by compound. For at least one compound, name, drawing or mass did not settle the structure.
Experiment: Pharmacokinetics and biodistribution after topical PS 8% ointment to hind paws (Example 25)
Type: in vivo, mouse
Settings: tissues after topical PS 8% ointment
Description: At 0.5, 1, 3, 5, 12, 18, and 24 h, mice (n=4-5 mice/time point) were euthanized with CO2 inhalation. Blood was drawn immediately after death. Tissues, including paw skin, paw muscle, leg muscle, the sciatic nerve and lumbar DRG bilaterally were dissected quickly, immediately frozen in liquid nitrogen and stored at −80° C. until analyzed.

Structure (SMILES): CC1=C(CC(=O)O)c2cc(F)ccc2/C1=C\c1ccc(S(C)(=O)=O)cc1 [Sulindac sulfone, sulindac sulfone]
- metabolite levels relative to those of sulindac: < 20%

Structure (SMILES): CSc1ccc(/C=C2/C(C)=C(CC(=O)O)c3cc(F)ccc32)cc1 [Sulindac sulfide, sulindac sulfide]
- metabolite levels relative to those of sulindac: < 20%

Reference: patent US20250345350A1, “TREATING PAIN ASSOCIATED WITH CENTRAL SENSITIZATION” (Medicon Pharmaceuticals, Inc., priority 2022, published 2025)
